# Assay results: the supplement of paper PMC6411743
# Sequences of proteins named here, by UniProt entry; tags and fusion partners are left off. A change or cut given only in a name is not applied to a line headed by its entry.
# UniProt Q8WVT3: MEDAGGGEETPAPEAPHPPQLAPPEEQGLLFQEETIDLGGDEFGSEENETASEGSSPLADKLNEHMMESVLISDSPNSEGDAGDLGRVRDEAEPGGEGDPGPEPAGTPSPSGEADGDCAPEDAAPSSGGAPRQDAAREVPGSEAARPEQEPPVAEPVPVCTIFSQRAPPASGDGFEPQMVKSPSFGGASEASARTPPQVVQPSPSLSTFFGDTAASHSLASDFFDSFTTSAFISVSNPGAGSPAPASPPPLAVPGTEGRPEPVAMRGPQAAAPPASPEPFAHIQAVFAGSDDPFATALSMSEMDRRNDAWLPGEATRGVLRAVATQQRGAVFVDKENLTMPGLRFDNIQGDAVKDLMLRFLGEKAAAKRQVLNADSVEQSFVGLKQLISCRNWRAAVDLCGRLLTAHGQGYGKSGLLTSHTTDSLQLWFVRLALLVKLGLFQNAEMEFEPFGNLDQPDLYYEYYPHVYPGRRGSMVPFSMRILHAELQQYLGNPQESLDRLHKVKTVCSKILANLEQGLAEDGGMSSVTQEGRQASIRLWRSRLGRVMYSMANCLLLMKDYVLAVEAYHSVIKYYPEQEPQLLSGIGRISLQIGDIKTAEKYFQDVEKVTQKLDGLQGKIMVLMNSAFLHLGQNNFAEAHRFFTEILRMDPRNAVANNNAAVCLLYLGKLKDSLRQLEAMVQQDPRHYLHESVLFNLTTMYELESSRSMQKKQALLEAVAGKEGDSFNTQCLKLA
# UniProt Q8WUD1: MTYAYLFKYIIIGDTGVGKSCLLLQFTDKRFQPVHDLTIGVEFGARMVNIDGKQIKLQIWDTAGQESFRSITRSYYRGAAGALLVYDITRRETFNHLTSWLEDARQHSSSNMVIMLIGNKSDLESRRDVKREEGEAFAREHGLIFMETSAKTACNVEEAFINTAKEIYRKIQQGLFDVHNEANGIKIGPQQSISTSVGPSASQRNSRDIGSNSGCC
# UniProt Q8WUK0: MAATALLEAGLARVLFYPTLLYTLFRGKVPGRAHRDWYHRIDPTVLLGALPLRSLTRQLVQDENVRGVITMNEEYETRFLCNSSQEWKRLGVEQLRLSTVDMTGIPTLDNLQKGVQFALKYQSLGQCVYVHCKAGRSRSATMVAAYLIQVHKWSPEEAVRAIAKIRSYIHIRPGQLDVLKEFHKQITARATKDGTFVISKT
# UniProt Q8TBB5: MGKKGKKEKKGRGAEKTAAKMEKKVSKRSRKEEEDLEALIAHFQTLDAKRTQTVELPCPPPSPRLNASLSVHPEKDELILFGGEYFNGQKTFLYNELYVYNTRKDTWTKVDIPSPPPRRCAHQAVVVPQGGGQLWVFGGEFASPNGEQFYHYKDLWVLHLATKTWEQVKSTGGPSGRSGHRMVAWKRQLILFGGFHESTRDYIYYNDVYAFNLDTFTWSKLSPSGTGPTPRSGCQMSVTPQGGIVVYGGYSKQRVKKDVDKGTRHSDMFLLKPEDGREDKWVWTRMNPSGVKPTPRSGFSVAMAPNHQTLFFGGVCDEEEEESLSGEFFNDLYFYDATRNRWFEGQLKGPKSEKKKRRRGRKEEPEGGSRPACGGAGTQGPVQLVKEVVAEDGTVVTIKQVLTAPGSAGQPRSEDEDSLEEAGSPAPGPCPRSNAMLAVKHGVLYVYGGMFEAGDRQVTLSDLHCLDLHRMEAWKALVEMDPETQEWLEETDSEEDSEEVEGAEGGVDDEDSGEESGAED
# UniProt Q92738: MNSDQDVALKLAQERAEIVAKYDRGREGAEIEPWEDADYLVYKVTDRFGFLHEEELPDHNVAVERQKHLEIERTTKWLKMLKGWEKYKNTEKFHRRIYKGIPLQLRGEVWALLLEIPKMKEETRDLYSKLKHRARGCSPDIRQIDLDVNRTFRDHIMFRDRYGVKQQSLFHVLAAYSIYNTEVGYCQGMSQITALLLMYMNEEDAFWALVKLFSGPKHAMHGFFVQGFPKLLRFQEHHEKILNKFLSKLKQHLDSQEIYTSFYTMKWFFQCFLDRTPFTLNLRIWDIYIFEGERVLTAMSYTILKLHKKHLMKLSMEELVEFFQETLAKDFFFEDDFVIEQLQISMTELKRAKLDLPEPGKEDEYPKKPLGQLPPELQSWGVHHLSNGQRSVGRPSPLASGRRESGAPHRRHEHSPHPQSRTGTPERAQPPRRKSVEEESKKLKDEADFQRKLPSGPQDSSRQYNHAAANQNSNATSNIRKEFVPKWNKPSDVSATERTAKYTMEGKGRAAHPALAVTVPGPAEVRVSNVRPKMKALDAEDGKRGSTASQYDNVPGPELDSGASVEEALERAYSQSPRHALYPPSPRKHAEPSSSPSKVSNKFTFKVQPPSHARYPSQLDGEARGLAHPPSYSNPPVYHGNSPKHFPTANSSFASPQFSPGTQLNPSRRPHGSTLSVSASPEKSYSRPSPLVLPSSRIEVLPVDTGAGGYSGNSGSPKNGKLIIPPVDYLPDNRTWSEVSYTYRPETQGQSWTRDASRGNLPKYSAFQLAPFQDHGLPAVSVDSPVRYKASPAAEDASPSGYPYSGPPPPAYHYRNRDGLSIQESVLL
# UniProt Q8TCE6, whole entry: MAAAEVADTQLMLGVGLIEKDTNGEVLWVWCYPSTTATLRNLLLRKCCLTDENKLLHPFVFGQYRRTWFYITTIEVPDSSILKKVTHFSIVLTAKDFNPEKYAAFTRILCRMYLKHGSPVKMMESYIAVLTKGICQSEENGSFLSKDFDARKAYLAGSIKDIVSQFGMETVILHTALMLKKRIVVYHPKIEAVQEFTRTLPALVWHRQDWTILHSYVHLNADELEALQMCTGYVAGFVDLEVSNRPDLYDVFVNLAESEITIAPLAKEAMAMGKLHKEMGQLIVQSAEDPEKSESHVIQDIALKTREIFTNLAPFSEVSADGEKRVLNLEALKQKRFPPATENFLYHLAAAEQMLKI
# UniProt Q8TD19: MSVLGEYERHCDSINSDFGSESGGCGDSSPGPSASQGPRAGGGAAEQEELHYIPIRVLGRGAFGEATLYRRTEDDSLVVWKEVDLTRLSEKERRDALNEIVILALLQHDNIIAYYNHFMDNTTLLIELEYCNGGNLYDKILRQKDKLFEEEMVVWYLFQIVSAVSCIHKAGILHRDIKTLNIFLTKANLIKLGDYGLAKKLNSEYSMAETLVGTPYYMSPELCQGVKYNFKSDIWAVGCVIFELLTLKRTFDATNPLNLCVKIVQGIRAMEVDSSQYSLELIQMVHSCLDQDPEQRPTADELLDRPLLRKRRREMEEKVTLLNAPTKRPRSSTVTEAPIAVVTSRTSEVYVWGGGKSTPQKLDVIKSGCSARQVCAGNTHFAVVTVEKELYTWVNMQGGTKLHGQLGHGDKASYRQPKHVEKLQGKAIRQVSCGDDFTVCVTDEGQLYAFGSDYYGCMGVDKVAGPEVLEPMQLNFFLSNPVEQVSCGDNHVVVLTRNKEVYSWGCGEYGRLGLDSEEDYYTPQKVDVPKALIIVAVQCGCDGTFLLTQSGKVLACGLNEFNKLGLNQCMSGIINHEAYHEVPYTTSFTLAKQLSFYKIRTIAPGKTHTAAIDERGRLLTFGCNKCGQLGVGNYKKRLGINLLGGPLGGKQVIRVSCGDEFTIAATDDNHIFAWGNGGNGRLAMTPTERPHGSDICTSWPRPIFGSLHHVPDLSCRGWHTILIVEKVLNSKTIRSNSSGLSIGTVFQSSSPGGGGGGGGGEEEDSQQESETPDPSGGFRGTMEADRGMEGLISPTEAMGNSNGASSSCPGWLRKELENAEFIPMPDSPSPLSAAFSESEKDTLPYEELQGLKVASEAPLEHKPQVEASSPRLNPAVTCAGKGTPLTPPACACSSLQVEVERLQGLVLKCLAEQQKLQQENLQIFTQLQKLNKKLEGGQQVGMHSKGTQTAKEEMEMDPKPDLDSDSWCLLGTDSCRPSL
# UniProt Q92597: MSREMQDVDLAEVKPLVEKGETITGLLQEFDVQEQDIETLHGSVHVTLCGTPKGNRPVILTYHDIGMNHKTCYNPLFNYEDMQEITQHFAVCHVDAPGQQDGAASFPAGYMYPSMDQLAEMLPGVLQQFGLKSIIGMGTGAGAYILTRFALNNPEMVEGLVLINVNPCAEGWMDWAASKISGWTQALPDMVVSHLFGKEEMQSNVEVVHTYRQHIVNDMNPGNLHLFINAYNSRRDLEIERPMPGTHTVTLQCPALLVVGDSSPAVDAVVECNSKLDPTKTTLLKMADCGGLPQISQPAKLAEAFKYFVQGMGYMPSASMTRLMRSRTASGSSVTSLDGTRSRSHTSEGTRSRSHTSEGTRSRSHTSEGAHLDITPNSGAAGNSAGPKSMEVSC
# UniProt Q92522: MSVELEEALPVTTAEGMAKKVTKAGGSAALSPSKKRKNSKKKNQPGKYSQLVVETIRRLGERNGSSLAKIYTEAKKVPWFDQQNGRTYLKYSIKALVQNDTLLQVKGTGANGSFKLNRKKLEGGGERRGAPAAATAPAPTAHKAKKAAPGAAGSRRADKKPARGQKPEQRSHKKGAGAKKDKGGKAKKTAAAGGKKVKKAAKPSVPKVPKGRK
# UniProt Q8WU76: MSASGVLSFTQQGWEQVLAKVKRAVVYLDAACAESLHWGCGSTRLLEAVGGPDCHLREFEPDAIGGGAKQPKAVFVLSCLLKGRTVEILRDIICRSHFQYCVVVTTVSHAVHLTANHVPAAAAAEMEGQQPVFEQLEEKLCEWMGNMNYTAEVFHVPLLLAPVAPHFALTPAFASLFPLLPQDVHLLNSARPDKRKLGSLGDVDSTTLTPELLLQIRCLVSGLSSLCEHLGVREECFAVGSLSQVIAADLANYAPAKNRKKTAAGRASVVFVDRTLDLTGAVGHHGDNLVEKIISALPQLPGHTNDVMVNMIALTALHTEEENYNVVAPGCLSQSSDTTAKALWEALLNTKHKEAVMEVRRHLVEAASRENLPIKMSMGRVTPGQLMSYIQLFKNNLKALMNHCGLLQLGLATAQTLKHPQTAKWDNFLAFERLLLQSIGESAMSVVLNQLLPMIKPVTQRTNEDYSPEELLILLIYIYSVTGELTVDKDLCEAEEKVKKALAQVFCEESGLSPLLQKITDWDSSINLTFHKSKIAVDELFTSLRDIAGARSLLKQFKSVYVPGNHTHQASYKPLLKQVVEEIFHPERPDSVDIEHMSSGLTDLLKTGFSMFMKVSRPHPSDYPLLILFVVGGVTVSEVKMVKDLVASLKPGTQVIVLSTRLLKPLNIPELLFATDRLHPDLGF
# UniProt Q8NCF5: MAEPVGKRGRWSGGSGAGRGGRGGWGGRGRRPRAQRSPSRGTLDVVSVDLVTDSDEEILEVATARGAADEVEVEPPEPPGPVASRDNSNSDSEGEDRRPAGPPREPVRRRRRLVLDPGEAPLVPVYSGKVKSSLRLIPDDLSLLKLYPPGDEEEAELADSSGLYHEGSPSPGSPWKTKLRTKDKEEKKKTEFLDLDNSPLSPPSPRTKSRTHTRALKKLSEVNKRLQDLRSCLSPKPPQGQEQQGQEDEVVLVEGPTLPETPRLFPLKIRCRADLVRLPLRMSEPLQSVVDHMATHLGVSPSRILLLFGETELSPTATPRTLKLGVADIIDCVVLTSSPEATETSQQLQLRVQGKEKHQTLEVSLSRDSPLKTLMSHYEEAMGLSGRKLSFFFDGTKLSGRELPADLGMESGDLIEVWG
# UniProt Q8NEC7: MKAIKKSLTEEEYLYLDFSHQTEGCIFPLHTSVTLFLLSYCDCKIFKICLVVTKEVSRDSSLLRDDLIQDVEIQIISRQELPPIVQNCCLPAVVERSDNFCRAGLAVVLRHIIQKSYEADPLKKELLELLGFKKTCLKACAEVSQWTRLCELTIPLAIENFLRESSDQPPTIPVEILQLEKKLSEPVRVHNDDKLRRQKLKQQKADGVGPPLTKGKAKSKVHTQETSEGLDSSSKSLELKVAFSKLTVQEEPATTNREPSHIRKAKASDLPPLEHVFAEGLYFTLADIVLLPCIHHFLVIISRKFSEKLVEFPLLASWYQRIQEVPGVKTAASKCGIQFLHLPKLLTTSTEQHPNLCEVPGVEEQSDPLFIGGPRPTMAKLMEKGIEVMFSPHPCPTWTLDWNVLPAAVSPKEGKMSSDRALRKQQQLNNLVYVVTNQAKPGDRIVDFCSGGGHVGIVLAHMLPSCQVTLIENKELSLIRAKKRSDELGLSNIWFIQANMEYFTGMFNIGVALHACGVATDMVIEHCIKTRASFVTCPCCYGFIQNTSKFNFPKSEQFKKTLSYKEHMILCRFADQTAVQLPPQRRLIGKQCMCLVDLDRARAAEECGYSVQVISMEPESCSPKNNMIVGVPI
# UniProt Q8WWV3: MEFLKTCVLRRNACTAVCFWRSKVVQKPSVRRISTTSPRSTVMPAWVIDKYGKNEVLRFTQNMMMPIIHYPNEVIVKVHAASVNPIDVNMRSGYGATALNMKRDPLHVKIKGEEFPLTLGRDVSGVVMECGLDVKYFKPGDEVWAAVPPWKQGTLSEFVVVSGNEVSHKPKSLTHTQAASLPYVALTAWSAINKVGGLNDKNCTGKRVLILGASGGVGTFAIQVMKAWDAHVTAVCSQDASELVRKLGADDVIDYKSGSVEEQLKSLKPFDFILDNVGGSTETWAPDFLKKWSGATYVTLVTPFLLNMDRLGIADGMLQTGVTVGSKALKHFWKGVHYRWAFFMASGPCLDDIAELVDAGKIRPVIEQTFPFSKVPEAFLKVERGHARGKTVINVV
# ± gives the standard deviation of the averaged measurements. The list shows a part of the results, in another mix than the full data.
# Compound: Nc1ncnc2c1ncn2[C@@H]1O[C@H](COP(=O)(O)OP(=O)(O)NP(=O)(O)O)[C@@H](O)[C@H]1O [adenylyl imidodiphosphate]
# Experiment: NP40-soluble protein abundance relative to vehicle (solubility fold change) (ratio); higher = more soluble protein in presence of AMP-PNP
# Method in brief: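 Jurkat crude lysate (Dounce-homogenised) was treated with eight concentrations from 0.1 to 10 mM for 10 min at room temperature, then 3 min at 37 °C. It was solubilised with 0.8% NP40 and benzonase (60 min, 4 °C) and ultracentrifuged, and the supernatant was TMT-labelled for LC-MS/MS. Intensities were vsn-normalised, and the value is the fold change against the NP40-processed vehicle per replicate, from three independent experiments.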
Target,NP40-soluble protein abundance (concentration: 1mM),NP40-soluble protein abundance (concentration: 2mM),NP40-soluble protein abundance (concentration: 4mM),NP40-soluble protein abundance (concentration: 6mM),NP40-soluble protein abundance (concentration: 8mM),NP40-soluble protein abundance (concentration: 10mM)
UniProt Q8NI08 and related entries,0.968 ± 0.027,1.009 ± 0.0066,0.97 ± 0.03,0.946 ± 0.019,0.922 ± 0.034,0.968 ± 0.026
UniProt Q8TCY9,0.99342 ± 0.00023,1.01 ± 0.028,0.986 ± 0.04,0.974 ± 0.043,0.982 ± 0.029,0.9689 ± 0.0011
GALNT6 (UniProt Q8NCL4),1.005 ± 0.0084,0.9987 ± 0.0047,0.967 ± 0.011,1 ± 0.024,0.9866 ± 0.0025,1 ± 0.015
UniProt Q8WVT3,1.01 ± 0.031,1.001 ± 0.0084,1.01 ± 0.013,0.992 ± 0.031,0.9714 ± 0.0047,0.986 ± 0.022
OVCA2 (UniProt Q8WZ82),1.01 ± 0.018,0.992 ± 0.052,1.01 ± 0.062,0.981 ± 0.018,1.01 ± 0.041,0.999 ± 0.03
DTD1 (UniProt Q8TEA8),1.02 ± 0.027,1.04 ± 0.11,1.02 ± 0.038,1.01 ± 0.06,1.01 ± 0.059,1.04 ± 0.054
LEO1 (UniProt Q8WVC0),1.025 ± 0.006,1.04 ± 0.062,1.01 ± 0.029,1.02 ± 0.03,0.997 ± 0.016,1.02 ± 0.024
UniProt Q8NC51 and related entries,1.08 ± 0.052,1.16 ± 0.042,1.14 ± 0.066,1.21 ± 0.094,1.25 ± 0.086,1.32 ± 0.078
DHX38 (UniProt Q92620),1.016 ± 0.0095,1.03 ± 0.037,1.03 ± 0.012,1.01 ± 0.055,1.04 ± 0.034,1.03 ± 0.023
UniProt Q8WUB8 and related entries,1.01 ± 0.045,1.04 ± 0.034,1.07 ± 0.023,1.11 ± 0.045,1.08 ± 0.051,1.15 ± 0.061
RAB2B (UniProt Q8WUD1),1.02 ± 0.076,0.994 ± 0.055,1.04 ± 0.07,0.963 ± 0.056,1.01 ± 0.053,0.986 ± 0.066
TTL (UniProt Q8NG68),1.0715 ± 0.00069,1.03 ± 0.036,1.08 ± 0.056,1.05 ± 0.014,1.05 ± 0.029,1.01 ± 0.054
UniProt Q8WUK0 and related entries,0.953 ± 0.042,0.923 ± 0.019,0.9206 ± 0.0015,0.929 ± 0.023,0.9529 ± 0.0077,0.924 ± 0.018
UniProt Q8TBB5 and related entries,1 ± 0.029,1.04 ± 0.044,1.016 ± 0.0083,1.04 ± 0.035,1.01 ± 0.025,1.07 ± 0.051
UniProt Q92738 and related entries,0.986 ± 0.019,1.04 ± 0.077,0.96 ± 0.03,0.99 ± 0.036,0.966 ± 0.028,0.969 ± 0.019
UniProt Q8TCE6 and related entries,0.992 ± 0.025,0.973 ± 0.04,0.956 ± 0.01,0.966 ± 0.023,0.9542 ± 0.006,0.941 ± 0.039
UniProt Q8NFA0 and related entries,0.969 ± 0.033,1.01 ± 0.07,0.986 ± 0.035,0.983 ± 0.014,0.94 ± 0.044,0.959 ± 0.035

Target,NP40-soluble protein abundance (concentration: 1mM),NP40-soluble protein abundance (concentration: 2mM),NP40-soluble protein abundance (concentration: 4mM),NP40-soluble protein abundance (concentration: 6mM),NP40-soluble protein abundance (concentration: 8mM),NP40-soluble protein abundance (concentration: 10mM)
SNRNP27 (UniProt Q8WVK2),1.01 ± 0.011,1.08 ± 0.12,1 ± 0.03,1.1 ± 0.1,1.12 ± 0.091,1.23 ± 0.036
NEK9 (UniProt Q8TD19),0.984 ± 0.015,0.9512 ± 0.006,0.975 ± 0.012,0.97 ± 0.04,0.976 ± 0.05,0.947 ± 0.021
NDRG1 (UniProt Q92597),1.04 ± 0.037,1.04 ± 0.042,0.999 ± 0.058,1 ± 0.02,0.986 ± 0.046,0.989 ± 0.051
UniProt Q92615,1.04 ± 0.016,1.09 ± 0.029,1.12 ± 0.027,1.1 ± 0.051,1.12 ± 0.043,1.16 ± 0.055
UniProt Q8WYP5 and related entries,1.04 ± 0.03,1.08 ± 0.041,1.1 ± 0.038,1.18 ± 0.047,1.21 ± 0.068,1.31 ± 0.11
FBXO30 (UniProt Q8TB52),1.03 ± 0.0066,1.003 ± 0.0059,0.952 ± 0.015,0.998 ± 0.012,0.975 ± 0.013,0.983 ± 0.016
H1FX (UniProt Q92522),0.992 ± 0.053,1.07 ± 0.08,1.04 ± 0.052,1.13 ± 0.099,1.11 ± 0.099,1.27 ± 0.048
UniProt Q8NCA5 and related entries,1.04 ± 0.021,1.05 ± 0.047,1.04 ± 0.017,1.1 ± 0.097,1.13 ± 0.081,1.16 ± 0.088
UniProt Q8WU76 and related entries,0.941 ± 0.035,0.881 ± 0.092,0.911 ± 0.038,0.878 ± 0.091,0.877 ± 0.085,0.89 ± 0.1
UniProt Q8TD16 and related entries,1.032 ± 0.0098,1.06 ± 0.051,1.05 ± 0.035,0.999 ± 0.011,0.967 ± 0.01,0.972 ± 0.033
EDEM1 (UniProt Q92611),1.001 ± 0.0074,1.02 ± 0.03,0.984 ± 0.052,0.99 ± 0.043,0.982 ± 0.023,0.989 ± 0.067
RTF1 (UniProt Q92541),1.03 ± 0.012,1.08 ± 0.06,1.03 ± 0.042,1.01 ± 0.022,0.984 ± 0.03,1.02 ± 0.046
NFATC2IP (UniProt Q8NCF5),1.04 ± 0.011,1.08 ± 0.067,1.03 ± 0.062,1.011 ± 0.0037,1.01 ± 0.021,1.02 ± 0.044
GADD45GIP1 (UniProt Q8TAE8),0.96 ± 0.026,1.06 ± 0.0042,0.968 ± 0.0089,0.977 ± 0.041,0.953 ± 0.025,0.966 ± 0.024
GSTCD (UniProt Q8NEC7),0.9928 ± 0.0054,0.988 ± 0.057,0.999 ± 0.029,0.992 ± 0.038,1.01 ± 0.019,1 ± 0.025
RTN4IP1 (UniProt Q8WWV3),1 ± 0.028,0.947 ± 0.058,0.971 ± 0.027,0.946 ± 0.028,0.947 ± 0.035,0.922 ± 0.012
GEMIN5 (UniProt Q8TEQ6),0.9738 ± 0.0087,0.976 ± 0.028,0.987 ± 0.029,0.972 ± 0.023,0.982 ± 0.025,0.967 ± 0.038

# Copied from the list.
# In NP40-soluble protein abundance (concentration: 8mM), NFATC2IP (UniProt Q8NCF5) reads 1.01 ± 0.021
# In NP40-soluble protein abundance (concentration: 2mM), UniProt Q8TBB5 and related entries reads 1.04 ± 0.044
